# Measurements as given in PubChem BioAssay (NCATS).
# Several values for one entry are separate records, joined by “and”; a condition that tells them apart may be missing. Equal values may be shown once. Some of the results follow. Shown are side measurements of this screen, not its main read-out; they come without a call. Compounds called inactive in the main read-out are mostly missing here. For some of these results: Potencies come from curve fits of mixed quality, noted in brackets.
# Experiments:
# [1] = qHTS assay for small molecule antagonists of peroxisome proliferator-activated receptor gamma signaling (AID 588537); details: HEK293 PPARg-UAS-bla, beta-lactamase ratio, antagonist mode; measured here: W460 blue channel
# Procedure, shortened: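 Cell-based beta-lactamase assay; GW9662 served as the antagonist control. Stimulation used rosiglitazone, final 50 nM, 16 h, 37 C.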
# [2] = qHTS assay for small molecule agonists of retinoid X receptor alpha signaling (AID 588544); details: HEK293T RXRa-UAS-bla, beta-lactamase reporter, 18 h; 530 nm emission
# [3] = qHTS assay for small molecule antagonists of vitamin D receptor signaling (AID 588541); details: HEK293T VDR-UAS-bla, beta-lactamase ratio, antagonist mode; measured here: W460 blue channel (cell viability)
# [4] = qHTS assay for small molecule antagonists of retinoid X receptor alpha signaling (AID 588546); details: HEK293T RXRa-UAS-bla, beta-lactamase ratio, antagonist mode; measured here: W530 green channel, cytotoxicity proxy;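 note: cells stimulated with 9-cis-retinoic acid as agonist; % is set by controls: 0 for no effect and ±100 for the full control effect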
# Procedure, shortened: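 Beta-lactamase reporter inhibition, read as CCF4 fluorescence ratio (ex 405, em 460/530 nm) after 2 h at RT. HEK293T UAS-bla cells, 2500/well, were stimulated with 9-cis-RA at 500 or 100 nM final alongside test compound for 18 h at 37 C.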
# [5] = S16 Schwann cell PMP22 intronic element beta-lactamase assay (AID 624044); details: S16 rat Schwann cells, PMP22 element beta-lactamase FRET, 24 h
# Procedure, shortened: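 Beta-lactamase reporter under a PMP22 intronic regulatory element in stable S16 rat Schwann cells; 24 h compound exposure. 460 nm blue signal normalized between DMSO (0%) and potassium clavulanate, with 535 nm FRET tracking viability; curves classed by r2 and response.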
# [6] = measured here: 460 nm blue channel
compound,measurement,setting,value
C=Cc1ccccc1,AC50,[1],"44.7 µM [rising, single point]"
same,max response,[2],-10.2%
CC(=O)Nc1ccc(N=Nc2cc(C)ccc2O)cc1,AC50,[1],"28.2 µM [falling, partial curve, poor fit]"
same,AC50,[3],"39.8 µM [falling, partial curve, poor fit]"
CCCC(=O)OC(=O)CCC,AC50,[1],"70.8 µM [rising, single point]"
CNc1ccccc1,AC50,[1],"70.8 µM [rising, single point]"
CCCCC(CC)COCC1CO1 (stereo not drawn),AC50,[1],"35.5 µM [rising, single point]"
CSCCC=O,AC50,[1],"70.8 µM [rising, single point]"
Cn1sccc1=O,AC50,[1],"0.00398 µM [falling, full curve, poor fit]"
same,max response,[2],-15.3%
C=CCOc1nc(OCC=C)nc(OCC=C)n1,AC50,[1],"0.00316 µM [falling, full curve, poor fit]"
O=C(Nc1ccccc1)Nc1ccccc1,AC50,[1],"44.7 µM [falling, partial curve, poor fit]"
Cc1ccc([N+](=O)[O-])c(N)c1,AC50,[1],"70.8 µM [rising, single point]"
O=C(O)C(Oc1ccc(Cl)cc1)Oc1ccc(Cl)cc1,AC50,[1],"0.00158 µM [falling, full curve, poor fit]"
same,AC50,[3],"0.794 µM [falling, full curve, poor fit]"
O=C1OC(=O)c2ccccc21,AC50,[1],"50.1 µM [rising, single point]"
N#CC1(O)CCCCC1,AC50,[1],"50.1 µM [rising, single point]"
O=C1C=CCCC1,AC50,[1],"50.1 µM [rising, single point]"
CCOC(=O)CC(O)(CC(=O)OCC)C(=O)OCC,AC50,[1],"0.00316 µM [falling, full curve, poor fit]"
Brc1cc(Oc2cc(Br)c(Br)c(Br)c2Br)c(Br)c(Br)c1Br,AC50,[1],"44.7 µM [rising, partial curve]"
same,max response,[2],40.2%
CC(C)(c1cc(Br)c(OCC(Br)CBr)c(Br)c1)c1cc(Br)c(OCC(Br)CBr)c(Br)c1 (stereo not drawn),AC50,[1],"70.8 µM [rising, single point]"
same,max response,[2],-16.8%
O=Cc1ccc(Cl)c(Cl)c1,AC50,[1],"50.1 µM [rising, single point]"
same,max response,[4],-8.84%
CNc1ccc(O)cc1,AC50,[1],"70.8 µM [rising, single point]"
same,max response,[2],40%
same,max response,[4],38.1%
CCCCC(CC)COC(=O)CC(C(=O)OCC(CC)CCCC)S(=O)(=O)O (stereo not drawn),AC50,[3],"25.1 µM [falling, full curve]"
same,max response,[2],51.5%
same,max response,[4],-1.1%
CCCCOCCOCCOC(C)=O,AC50,[1],"0.002 µM [falling, full curve, poor fit]"
same,max response,[4],-24.2%
CCOC(=O)c1ccc(O)cc1,AC50,[3],"0.0891 µM [falling, full curve, poor fit]"
C=C(C)C1CC=C(C)CC1 (stereo not drawn),AC50,[3],"251 µM [rising, full curve, poor fit]"
same,max response,[2],46.2%
CN(C)c1ccc(C(c2ccccc2)c2ccc(N(C)C)cc2)cc1,AC50,[3],"50.1 µM [falling, partial curve, poor fit]"
same,max response,[2],39.1%
same,max response,[4],-21.2%
CCOc1ccc(NC(C)=O)cc1N,AC50,[1],"50.1 µM [rising, single point]"
same,max response,[4],0.867%
CCC(O)OC(O)CC (stereo not drawn),AC50,[1],"0.00126 µM [falling, full curve, poor fit]"
same,max response,[2],-7.49%
same,max response,[4],-6.4% and 2.94%
O=c1[nH]c(=O)n([C@H]2C[C@H](O)[C@@H](CO)O2)cc1Br,AC50,[1],"63.1 µM [rising, single point]"
same,AC50,[5]; [6],"15.8 µM [falling, partial curve]"
CCN(CC)c1ccc2c(C)cc(=O)oc2c1,AC50,[3],"39.8 µM [rising, partial curve, poor fit]"
same,max response,[2],43.9%
same,max response,[4],59.5%
OCl,AC50,[1],"50.1 µM [rising, single point]"
same,AC50,[5]; [6],"14.1 µM [falling, single point]"
Cc1ccc(O)c(N)c1,AC50,[3],"28.2 µM [falling, full curve, poor fit]"
Cc1ccc(S(=O)(=O)O)cc1C,AC50,[1],"50.1 µM [rising, single point]"
same,AC50,[5]; [6],"25.1 µM [rising, single point]"
CCCCCCCC/C=C\CCCCCCCCN,AC50,[1],"0.0708 µM [falling, full curve, poor fit]"
same,AC50,[5]; measured here: 530 nm viability channel,"25.1 µM [falling, partial curve]"
CCCC/C=C\CCCCCCCCCC=O,AC50,[1],"0.00112 µM [falling, full curve, poor fit]"
same,max response,[2],-0.409%
